{
  "sequences": {"note": "Chains of the proteins cited; added tags and fusions are not shown. Residues count along the entry.", "UniProt P35968, residues 20-1356": "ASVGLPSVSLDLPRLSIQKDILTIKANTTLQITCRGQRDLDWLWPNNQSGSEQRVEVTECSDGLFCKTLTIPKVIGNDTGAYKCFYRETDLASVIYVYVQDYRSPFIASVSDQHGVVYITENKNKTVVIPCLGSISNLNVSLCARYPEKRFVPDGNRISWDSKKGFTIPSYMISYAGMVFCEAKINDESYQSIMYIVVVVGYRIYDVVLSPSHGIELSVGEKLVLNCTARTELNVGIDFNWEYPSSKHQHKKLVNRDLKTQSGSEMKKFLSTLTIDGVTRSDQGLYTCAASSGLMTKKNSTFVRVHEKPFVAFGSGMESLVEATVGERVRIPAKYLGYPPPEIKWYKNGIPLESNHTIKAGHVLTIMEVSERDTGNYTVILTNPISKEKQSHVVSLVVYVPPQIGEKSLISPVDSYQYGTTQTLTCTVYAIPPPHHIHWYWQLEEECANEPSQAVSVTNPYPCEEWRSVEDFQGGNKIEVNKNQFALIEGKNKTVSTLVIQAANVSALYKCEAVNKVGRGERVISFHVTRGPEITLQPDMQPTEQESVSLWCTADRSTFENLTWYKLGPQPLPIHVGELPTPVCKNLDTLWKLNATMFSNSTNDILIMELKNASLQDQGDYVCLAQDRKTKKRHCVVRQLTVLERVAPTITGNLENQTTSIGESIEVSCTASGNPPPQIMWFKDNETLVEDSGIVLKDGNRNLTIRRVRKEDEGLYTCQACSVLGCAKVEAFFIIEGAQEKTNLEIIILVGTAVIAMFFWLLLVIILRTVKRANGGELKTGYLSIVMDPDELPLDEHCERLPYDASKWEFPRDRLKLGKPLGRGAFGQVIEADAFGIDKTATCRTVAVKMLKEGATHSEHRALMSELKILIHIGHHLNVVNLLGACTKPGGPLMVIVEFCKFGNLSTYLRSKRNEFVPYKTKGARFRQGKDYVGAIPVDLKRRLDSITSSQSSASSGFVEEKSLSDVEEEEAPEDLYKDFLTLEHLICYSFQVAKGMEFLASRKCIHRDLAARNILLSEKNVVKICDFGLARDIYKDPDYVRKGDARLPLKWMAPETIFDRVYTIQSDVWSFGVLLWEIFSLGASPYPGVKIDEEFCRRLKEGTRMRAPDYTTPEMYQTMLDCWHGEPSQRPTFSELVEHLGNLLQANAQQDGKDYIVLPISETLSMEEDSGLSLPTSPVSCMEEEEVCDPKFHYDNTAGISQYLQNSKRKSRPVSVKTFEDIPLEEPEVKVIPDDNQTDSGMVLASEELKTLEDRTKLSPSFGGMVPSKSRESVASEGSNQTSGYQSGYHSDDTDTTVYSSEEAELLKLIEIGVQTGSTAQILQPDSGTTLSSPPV"},
  "source": "paper PMC7349057",
  "key": {"[1]": {"molecular_target": "T1, N-Mut: Δ21-121 EMCN with the two N-glycosylation sites mutated (N127A and N131A), Myc-tagged (mouse) (UniProt Q9R0H2)", "T1 sequence": "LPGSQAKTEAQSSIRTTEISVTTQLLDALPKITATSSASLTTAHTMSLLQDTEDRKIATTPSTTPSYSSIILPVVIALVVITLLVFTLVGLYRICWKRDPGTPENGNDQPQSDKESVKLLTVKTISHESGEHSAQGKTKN", "assay": "co-IP; membrane proteins of HRECs (endogenous hEMCN knocked down by siRNA) expressing Myc-tagged mEMCN constructs; solubilisation buffer 50 mM Tris-HCl, 100 mM NaCl, 5 mM EDTA, 0.5% Triton-X 100, 0.5% NP-40, pH 7.5; IP with mouse anti-Myc overnight at 4 °C, mouse IgG as control; blot for VEGFR2 and Myc; VEGFR2 intensity normalised to Myc on beads and compared to FL mEMCN; FL EMCN also in CRISPR control and COSMC knockout HRECs (Figure 4D)"}, "[2]": {"molecular_target": "T2, mouse full-length endomucin (FL EMCN), Myc- and mCherry-tagged (mouse) (UniProt Q9R0H2)", "T2 sequence": "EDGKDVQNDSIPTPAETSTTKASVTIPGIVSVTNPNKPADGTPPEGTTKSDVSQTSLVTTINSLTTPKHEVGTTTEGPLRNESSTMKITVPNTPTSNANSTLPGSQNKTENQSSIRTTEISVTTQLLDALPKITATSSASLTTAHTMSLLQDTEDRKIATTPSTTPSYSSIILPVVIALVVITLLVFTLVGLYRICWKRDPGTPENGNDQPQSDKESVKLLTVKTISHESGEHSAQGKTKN", "assay": "co-IP; membrane proteins of HRECs (endogenous hEMCN knocked down by siRNA) expressing Myc-tagged mEMCN constructs; solubilisation buffer 50 mM Tris-HCl, 100 mM NaCl, 5 mM EDTA, 0.5% Triton-X 100, 0.5% NP-40, pH 7.5; IP with mouse anti-Myc overnight at 4 °C, mouse IgG as control; blot for VEGFR2 and Myc; VEGFR2 intensity normalised to Myc on beads and compared to FL mEMCN; FL EMCN also in CRISPR control and COSMC knockout HRECs (Figure 4D)"}},
  "note": "These are yes or no findings as the source states them, for the method shown. In cells and extracts the contact can be indirect. Some binding calls cover weakened binding; strength is not graded here. Sequences can lack the tags named with a protein.",
  "data": [
    {"substance": "vascular endothelial growth factor receptor 2 (VEGFR2) (from UniProt P35968 20-1356)", "values": [
      {"measurement": "binding", "setting": "[1]", "value": "no binding"},
      {"measurement": "binding", "setting": "[2]", "value": "binds"}
    ]}
  ]
}
